This passage reports MIC and Strain-selective antibacterial activity results from US20190247353A1, “ACNE STRAIN-SELECTIVE ANTIBACTERIAL AGENT” (MOMOTANI JUNTENKAN CO., LTD., priority 2016, published 2019).

By MIC is commonly meant the smallest concentration in the dilution series that meets the test's criterion for growth inhibition.

Molecules are shown by their SMILES.

Common to all, as to assay type: cell-based, Propionibacterium acnes
One assay has as its system HL043PA1 strain (RT5). As to the kind of experiment: MIC by broth microdilution method, HL043PA1 strain. As to conditions: Cutibacterium acnes, read-out: MIC against acne bacterium strain HL043PA1 strain (RT5). On the procedure:
(§1) An MIC is measured herein according to the broth microdilution method which is the standard method of Japanese Society of Chemotherapy.
(§2) The antibacterial activity of a test substance was determined based on the minimum inhibitory concentration (MIC). An MIC was measured according to the broth microdilution method which is the standard method of Japanese Society of Chemotherapy.
(§3) One-loopful of each acne bacterium strain listed in Table 1 was scraped off and inoculated into 5 mL of a GAM broth slant agar medium (pH 7.0, Nissui Pharmaceutical Co., Ltd.).
The inoculated acne bacterium strain was precultured at 37° C. in a nitrogen atmosphere (anaerobic condition) for 48 hours. […]
(§4) Each fatty acid (Tokyo Chemical Industry Co., Ltd.) listed in Table 2 was dissolved in dimethylsulfoxide (DMSO) as a solvent such that the concentration became 10,000 μg/mL, and used as a test substance.
Each of strain suspensions (5.0×10^4 cfu/mL) was aliquoted in a 96-well round bottom microplate, each of the test substance (fatty acid concentration 10,000 μg/mL) was added at a 1/10 volume to the aliquot and mixed to prepare measurement samples (fatty acid concentration: 1,000 μg/mL). Measurement samples in 2-fold dilution series were prepared using the strain suspension (fatty acid concentration from 0.48 to 1,000 μg/mL). […]
(In general: In broth dilution the organism is exposed to a series of concentrations in liquid medium.)

For assay [1], the system named is HL053PA1 strain (RT4) and HL043PA1 strain (RT5) versus HL110PA3 strain (RT6). As to the kind of experiment: Strain-selective antibacterial activity (average of MICRT6/MICRT4 and MICRT6/MICRT5). Particulars: control antibacterial agents, Comparative Example 1. From the text:
Herein, “acne strain-selective antibacterial activity” or “strain-selective antibacterial activity” means an index indicating better inhibition of growth of a dominant strain in acne patients compared to that of a dominant strain in healthy subjects. It is expressed by the average value of the values (MICRT6/MICRT4, and MICRT6/MICRTS) obtained by dividing the minimum inhibitory concentration (MIC) of an object substance with respect to the dominant strain in healthy subjects (RT6 strain) (MICRT6) respectively by the MIC of the object substance with respect to the dominant strain in acne patients (RT4 strain) (MICRT4), and by the MIC of the object substance with respect to the dominant strain in acne patients (RT5 strain) (MICRT5).
The strain-selective antibacterial activity of each test substance (Table 2, right-most column) was evaluated based on the following rating criteria (Table 3). When the strain-selective antibacterial activity is indicated by a numerical range, the rating was based on the minimum value thereof.

The next assay relates to HL053PA1 strain (RT4). Briefly: MIC by broth microdilution method, HL053PA1 strain. Particulars: Cutibacterium acnes, read-out: MIC against acne bacterium strain HL053PA1 strain (RT4). On the procedure: as §1, §2, §3
(§5) The inoculated acne bacterium strain was precultured at 37° C. in a nitrogen atmosphere (anaerobic condition) for 48 hours. The precultured microbial cells were diluted in a modified GAM broth liquid medium (pH 6.0) to a concentration of 5.0×10^4 cfu/mL (viable cell count per OD660=1 is 2.0×10^9 cfu/mL), to prepare strain suspensions.
as §4
(§6) Each of strain suspensions (5.0×10^4 cfu/mL) was aliquoted in a 96-well round bottom microplate, each of the test substance (fatty acid concentration 10,000 μg/mL) was added at a 1/10 volume to the aliquot and mixed to prepare measurement samples (fatty acid concentration: 1,000 μg/mL). […]

The test system of the next assay is HL110PA3 strain (RT6). Briefly: MIC by broth microdilution method, HL110PA3 strain. As to conditions: Cutibacterium acnes, read-out: MIC against acne bacterium strain HL110PA3 strain (RT6). As for the experimental part: as §1, §2, §3, §5, §4, §6

Turning to `CCCCCCCCCCCCCCCC[n+]1ccccc1` [Cetyl pyridinium chloride, reference compound], the MIC in the assay with HL043PA1 strain (RT5) was 7.81 µg/mL; with HL053PA1 strain (RT4), 15.6 µg/mL; with HL110PA3 strain (RT6), 3.9 µg/mL. Also, the Strain-selective antibacterial activity in assay [1] came out at 0.37.
